# Measurements taken from PubChem BioAssay AID1347426 (Functional Genomics Laboratory (NCATS/FGL), 2020).
# The campaign covered roughly 31,000 sequences. About 1,400 (4.5%) were called active.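 How the source made its calls: active means median seed-adjusted z-score above 1 or below -1; inactive means the rest.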 Some of the results follow.
# Assay: Novel Modifiers of Survival Motor Neuron (SMN) Protein: Gene Identification via Genome-wide siRNA Screen;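 further: luminescence tracks full-length SMN protein made from the SMN2 reporter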
# Conditions: HEK293T SMN2-luciferase reporter, siRNA knockdown, 72 h; actives lie on both sides
# In short: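 HEK293T cells stably expressing an SMN2 splicing/cDNA-luciferase reporter were reverse-transfected with a druggable-genome siRNA library and read by luminescence at 72 hours; hits defined by MAD score above 1.0 or below -1.0.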
row,Sequence,median seed-adjusted z-score
1,AAGUCGGAAUAGAAUGGAATT against COX7B,active: -1.16
2,CAUCUCGAAUUGAACCGAATT against LRIG3,inactive: 0.882
3,AGAGCUCAUUAACAUGUAUTT against PEX6,inactive: -0.281
4,CAGUAGAUGCUCAAGUAUATT against DNAJC24,inactive: -0.0166
5,GAAGAUUGCGGGUCAAUGATT against DLG1,inactive: 0.0642
6,GGAACAUGGAAGACAAGGATT against ZNF263,inactive: 0.397
7,GGUUAAUAUCUGGACAAUUTT against SC5DL,inactive: -0.439
8,CAACUGGAGUUAACACCGATT against ATP2A2,inactive: 0.314
9,GAACCUCAAGAAUCGAACATT against REV1,inactive: -0.294
10,GGAAGAACGUCUUGCACAATT against EEF1B2,inactive: 0.388
11,AGUUAUUGCUACUUCAGAATT against CX3CR1,inactive: -0.292
12,GCCUGCUGAUCCACCCUAATT against UBE2S,inactive: 0.348
13,GAACAAGUGGAUUGGUGAATT against RHOH,inactive: 0.443
14,CGAGGACCGGCAGUACAAATT against PRMT1,inactive: -0.596
15,GGCUCUAAUAAAUAUGGAATT against PURG,inactive: 0.448
16,GCAUACAGGAGAUCAACAATT against ADCY8,inactive: 0.103
17,GGAAGGCUGCGGAAAAGAATT against PLD3,inactive: 0.066
18,GGUCACCUAUCAUCCUUAATT against AGXT2L1,inactive: 0.285
19,GGCUAUGCAGGUCCACUGUTT against DDR1,inactive: -0.166
20,GCAGUUCACCCAUCCAGUATT against THY1,active: -1.1
21,UCAAUAAACUGCACGAAUATT against HS3ST1,active: 1.21
22,CCGUUGAAAAGGGAGGCAATT against CYCS,inactive: -0.679

row,Sequence,median seed-adjusted z-score
1,AGCCUGCGGUUUUCUGUAUTT against SYT12,inactive: -0.329
2,CGGAUUCCAGGAAUGCUAATT against EIF5B,active: 1.68
3,GCAUUGCUCUGGUCACCAATT against GPRC5D,inactive: -0.038
4,GCCUGGAUAACAUCACUGATT against AIM2,inactive: 0.0646
5,GGUUCGACAGGGACUCAAATT against GLRX3,inactive: 0.0784
6,GCAUAUGGUUGUUCAUCGATT against PRKAA2,inactive: -0.194
7,AGUUCACGUGAGCACGGUATT against HOXB4,inactive: 0.149
8,GACUUUUCAGAUCACCAAATT against USP39,inactive: 0.821
9,CCAGCUUCCCAUUAUCCCATT against CD248,inactive: -0.0191
10,GCAAUUUGGUGUAUCGCUUTT against PRSS23,inactive: -0.77
11,CACUGGAUGUAGAACUACATT against DNAJC6,inactive: -0.265
12,CCAUCAUGCUUGAUCGGGATT against SLC4A4,inactive: 0.43
13,GGAGUAGAGUUUGCAACAATT against RAB11A,inactive: -0.0554
14,CGGCCCUACUAAUUGGGAATT against SEMA4D,inactive: 0.309
15,GAAGAGCCGUAUGAUCGAATT against ZNF432,inactive: -0.124
16,GACUGUGGAAUGAAGUAUATT against RAB39,inactive: -0.408
17,GGUCUAGCCUUACACCUCATT against RAB3GAP2,inactive: 0.0583
18,GGGACACUCCUAUCAACUATT against ST18,inactive: 0.0762
19,CCAGUAAGUGUACAGCUUATT against ANTXR2,inactive: -0.727
20,CCAUCAAGCUCAUAAGCAATT against MAST1,inactive: -0.0897
21,GACUCGCUCAAGUACGAAATT against TTLL7,inactive: 0.00109
22,GAACCGCAGAGCUAAGCAATT against PROP1,inactive: 0.303

row,Sequence,median seed-adjusted z-score
1,AGGAGUGACUGAACUUAGATT against SPAG16,inactive: -0.0252
2,GCAGAUCUCUGUUCUCUCATT against SOX21,inactive: -0.412
3,GCAGUGGAGAAAACUAUGATT against PLG,inactive: 0.00473
4,UGACAAGUCUGCCCACCAATT against DNAJC4,inactive: 0.566
5,GGCGAGAUCUUUAUACGCATT against ZNF224,inactive: 0.0073
6,CCUGCGCUAUCUGACCUUCTT against ERN1,inactive: 0.684
7,GCUGGAACGUGGUCAAUGUTT against AFP,inactive: -0.144
8,GGGCAGAUCUUCAAUCAGUTT against GH2,inactive: 0.374
9,GGUUUUAACUGGAACUGGATT against HIF1AN,inactive: -0.0315
10,CCUCCUUUCUGAUCAGGGATT against BARHL1,inactive: 0.397
11,AGAAAGUUCCGGUCCUAUATT against ERN2,inactive: 0.526
12,GCCCUGCAAUAAUAACUGUTT against SLCO3A1,inactive: -0.0387
13,CAAUAGGAUUAUCAUGAGATT against MRS2,active: 1.38
14,CCUUUAGCACGGAUAGUUUTT against ACAT2,active: 1.25
15,CCUUGAAUCCCGAAUUCAATT against RPH3A,inactive: 0.232
16,CCAGAGAGGUGGUGGAAUATT against B3GNT3,inactive: 0.439
17,UGUCUGCUCCUGACCCUAATT against CYP2F1,inactive: 0
18,GGAAAAACCUUCAACCGAATT against ZNF329,inactive: -0.0877
19,GGUCCGUGACGAGAAGUUATT against RAB4A,inactive: 0.0022
20,GAGCUGAACUUGUCAUUCUTT against RANGAP1,inactive: -0.0379
21,CCAACAACAUAGCAAUUAATT against NFS1,inactive: 0.141
22,GCUCAGCUGUUUGCGUUGATT against USP14,inactive: 0

row,Sequence,median seed-adjusted z-score
1,GAAACAAAGUCUUAAUAUUTT against ATP1A4,inactive: 0.116
2,CAACUUGCCUUGUUAACCATT against ZDHHC2,inactive: 0.133
3,GCAGUUGUCUACGCCCAGATT against CNTFR,inactive: 0
4,GCUGCAACGUGUGCGAGUUTT against ZNF319,inactive: 0.256
5,CACCAGACAUCAAAAUCAATT against ATF7,inactive: 0.903
6,GCAGGUGCAUGGUCUUCAATT against NR5A1,inactive: -0.467
7,GAACCAUUCCUUAUCCCAUTT against SLC19A3,inactive: -0.0232
8,GGAUCGUGCAGGUCCUAAATT against VAC14,inactive: 0.0825
9,CAGGUAUGGUGAACCGUGATT against YES1,inactive: -0.508
10,GGCAUAUUUUGUAACGGGATT against GLP2R,inactive: 0.492
11,GUAUCGAAUUUACGGAUUATT against RNF139,inactive: 0.175
12,CACUCACCCUCCAGACAAATT against TAL2,inactive: -0.395
13,GAUGAUCAGCUAUGAAAAATT against ZNF780A,inactive: 0.298
14,GCAAGGCAGCUGUUCUGAATT against PGLS,inactive: 0.188
15,GAAAAACUCCAACCAGAUATT against CD4,inactive: -0.566
16,GGAGACCACCUAAGUAUAATT against ZNF630,inactive: -0.533
17,AAGACAUUUUGAAUCUGGATT against NKX2-3,inactive: -0.2
18,CGACCAAGAUUAUGGAAUUTT against ADAMTS17,inactive: 0.257
19,GAAUAUUCGUGGGACUGAUTT against ANXA8L2,inactive: -0.147
20,GAAAGACCUUUUAUAUGCATT against SP4,inactive: -0.088
21,GCAUAUCUCUCGACCACCUTT against NANOS2,inactive: 0.565
22,AGAAGACCAUUUGACCAUATT against MAFG,inactive: 0

# Reformatted: results already given
row	Sequence	median seed-adjusted z-score
11	AGAAAGUUCCGGUCCUAUATT against ERN2	inactive: 0.526
12	GCCCUGCAAUAAUAACUGUTT against SLCO3A1	inactive: -0.0387
14	CCUUUAGCACGGAUAGUUUTT against ACAT2	active: 1.25
15	CCUUGAAUCCCGAAUUCAATT against RPH3A	inactive: 0.232
16	CCAGAGAGGUGGUGGAAUATT against B3GNT3	inactive: 0.439
17	UGUCUGCUCCUGACCCUAATT against CYP2F1	inactive: 0
18	GGAAAAACCUUCAACCGAATT against ZNF329	inactive: -0.0877
19	GGUCCGUGACGAGAAGUUATT against RAB4A	inactive: 0.0022
20	GAGCUGAACUUGUCAUUCUTT against RANGAP1	inactive: -0.0379
21	CCAACAACAUAGCAAUUAATT against NFS1	inactive: 0.141
22	GCUCAGCUGUUUGCGUUGATT against USP14	inactive: 0
1	GAAACAAAGUCUUAAUAUUTT against ATP1A4	inactive: 0.116
2	CAACUUGCCUUGUUAACCATT against ZDHHC2	inactive: 0.133
3	GCAGUUGUCUACGCCCAGATT against CNTFR	inactive: 0
4	GCUGCAACGUGUGCGAGUUTT against ZNF319	inactive: 0.256
5	CACCAGACAUCAAAAUCAATT against ATF7	inactive: 0.903
6	GCAGGUGCAUGGUCUUCAATT against NR5A1	inactive: -0.467
7	GAACCAUUCCUUAUCCCAUTT against SLC19A3	inactive: -0.0232
9	CAGGUAUGGUGAACCGUGATT against YES1	inactive: -0.508
10	GGCAUAUUUUGUAACGGGATT against GLP2R	inactive: 0.492
11	GUAUCGAAUUUACGGAUUATT against RNF139	inactive: 0.175
12	CACUCACCCUCCAGACAAATT against TAL2	inactive: -0.395
13	GAUGAUCAGCUAUGAAAAATT against ZNF780A	inactive: 0.298
14	GCAAGGCAGCUGUUCUGAATT against PGLS	inactive: 0.188
15	GAAAAACUCCAACCAGAUATT against CD4	inactive: -0.566
16	GGAGACCACCUAAGUAUAATT against ZNF630	inactive: -0.533
17	AAGACAUUUUGAAUCUGGATT against NKX2-3	inactive: -0.2
18	CGACCAAGAUUAUGGAAUUTT against ADAMTS17	inactive: 0.257
20	GAAAGACCUUUUAUAUGCATT against SP4	inactive: -0.088
21	GCAUAUCUCUCGACCACCUTT against NANOS2	inactive: 0.565
22	AGAAGACCAUUUGACCAUATT against MAFG	inactive: 0

# Remaining list, next part.

row,Sequence,median seed-adjusted z-score
1,GCUCAGGUCUCAUUCGACATT against ZNF193,inactive: 0.276
2,CUACCAUUGUAUACCUAGATT against LRRIQ1,inactive: 0
3,CGAGCUGCACGUUCCUAUATT against IRF7,inactive: -0.304
4,CAGUGAAGCGAAACAGUAATT against SNED1,inactive: 0.148
5,CCCUGCUCGUCUAUACUUATT against SEMA5A,inactive: -0.443
6,CACAGGUUAUGAAACAGAATT against COQ6,inactive: -0.0116
7,GGAUGCUCCAAGUCUGUCATT against GPR179,inactive: -0.513
8,GCAGGACCCAUUACGGCUATT against DPEP1,inactive: -0.886
9,CCUCUGGACUGAUGCAGCATT against NEDD9,inactive: 0
10,GUCUACGUGUGGAAUGUGATT against DMBX1,inactive: -0.207
11,GAAUUGUACCUAUAAGAAUTT against ITGB3,inactive: 0.456
12,GGCUCAUGCUCAACGAGAATT against PTGES2,inactive: -0.02
13,GAAUGUAACUUCACAACCATT against ZHX2,inactive: 0.0708
14,CAGACUUGCUUAAUAGUAATT against ZFP1,inactive: 0.0391
15,GGCUUAUGGGUGUUCGGAUTT against POLK,inactive: -0.102
16,CAACUGAACCACCCAAAUATT against NEK6,inactive: -0.674
17,CCAUGACCACAGACAUCUUTT against PLCB2,inactive: 0.0845
18,CCGAAAGUGUGACCUCUGATT against AGXT2L1,inactive: 0.285
19,GCCUCUUAAUUUACCAGAATT against OGN,inactive: 0.0889
